The values below come from paper PMC12042267, “Expanding the Family of Monosubstituted 15-Membered Pyridine-Based Macrocyclic Ligands for Mn(II) Complexation in the Context of MRI” (Inorganic Chemistry, 2025).

Each structure is given as a SMILES string. Like-named read-outs stand apart in the source and are kept apart here.

For data set [1] the following is noted: cited from earlier work.
The nature of data set [2]: Simultaneous analysis of 17O NMR and 1H NMRD data (Solomon-Bloembergen-Morgan). The conditions noted are these: for CN (coordination number): first figure of CN/q; for q (hydration number): second figure of CN/q. The class given is physicochemical. Here is the method:
^1H NMRD profiles on aqueous solutions of MnL2 (cMn2+ = 0.98 mM; pH = 7.22) and MnL3 (cMn2+ = 0.96 mM; pH = 7.20) were recorded at 25 and 37 °C on a SMARTracer Fast Field Cycling NMR relaxometer (Stelar; 0.00024–0.24 T, 0.01–10 MHz ^1H Larmor frequency) and a WP80 NMR electromagnet adapted to variable-field measurements (Bruker; 0.47–1.88 T, 20–80 MHz ^1H Larmor frequency). The temperature was maintained by a gas flow and monitored by a VTC91 temperature control unit based on previous calibration with a Pt resistance temperature probe.
Variable-temperature ^17O NMR measurements of aqueous solutions of MnL2 (cMnL = 3.70 mmol·kg^–1, pH = 7.03) and MnL3 (cMnL = 3.72 mmol·kg^–1, pH = 7.2) were performed on a Bruker Avance III 400 MHz spectrometer (9.4 T, 54.2 MHz) in the temperature range 5–75 °C. The temperature was calculated after calibration with ethylene glycol and […]. Acidified water (HClO4, pH = 3.3) was used as a diamagnetic reference. The ^17O transverse relaxation times (T2) were obtained by using the CPMG spin–echo technique. To eliminate susceptibility contributions to the chemical shift, the sample was in a glass sphere placed in a 10 mm NMR tube. To improve the sensitivity, ^17O-enriched water (11.10% H2^17O, Cortecnet) was added to the solution to yield approximately 1% ^17O enrichment.
The ^17O NMR and NMRD data have been analyzed according to the Solomon–Bloembergen–Morgan theory of paramagnetic relaxation.[3] The least-squares fit was performed using Visualizeur/Optimiseur running on a MATLAB 8.3.0 (R2014a) platform.
^1H NMRD profiles were recorded at 25 and 37 °C in the magnetic field range 0.01–80 MHz (Figure 6, bottom). The reduced transverse ^17O relaxation rates were simultaneously fitted with ^1H NMRD data according to the Solomon–Bloembergen–Morgan theory (equations are given in SI). The fitted parameters are summarized in Table 6 and compared to those for seven-coordinate Mn(II) complexes of L1 and 15-pyN3O2 ligands, as well as of [Mn(H2O)6]^2+.
The shape of the ^1H NMRD curves reflects typical low-molecular-weight complexes. The profiles display one dispersion between 1 and 10 MHz as has been previously described for other complexes except [Mn(H2O)6]^2+.[49],[50] The hydration number of MnL2 and MnL3 was assumed in both cases to be q = 1 for a total coordination number of CN = 7, based on the X-ray crystal structure. In aqueous solution, the chloride or the acetonitrile that coordinates to Mn(II) in the solid state will be replaced by one water molecule to complete the coordination sphere of Mn(II). As it was described by Gale et al.,[51] the ^17O T2 values can also give an estimate of hydration number, provided the 1/T2r vs temperature curve has a maximum. […]

The nature of data set [3]: Semiempirical estimation of hydration number from molecular weight and low field relaxivity. The class given is physicochemical. The conditions noted are these: from molecular weight and low field relaxivity (0.01 MHz).
[4] abbreviates: second pair 7/1, at pH value above 8.0 ref 22.

Turning to `O.O=C([O-])CN1CCNCc2cccc(n2)CN(CC(=O)[O-])CC1.[Mn+2]` [Mn(3,6-PC2A)], the “CN (coordination number)” value in data set [1] (first figure of CN/q ref 21) is 7. In data set [1] (second figure of CN/q ref 21), the “q (hydration number)” value is 1.

As for `O.O=C([O-])CN1CCOCCN(CC(=O)[O-])Cc2cccc(n2)C1.[Mn+2]` [Mn(3,9-OPC2A)], in data set [1] (first figure of CN/q ref 26), the “CN (coordination number)” value is 7. Further, in data set [1] (second figure of CN/q ref 26), the “q (hydration number)” value is 1.

For the compound `O.O=C([O-])CN1CCNCCN(CC(=O)[O-])Cc2cccc(n2)C1.[Mn+2]` [Mn(3,9-PC2A)], in data set [1] (first figure of CN/q ref 21), the “CN (coordination number)” value was 7. In addition, in data set [1] (second figure of CN/q ref 21), the “q (hydration number)” value is 1.

Turning to `O.O.[Mn+2].c1cc2nc(c1)CNCCOCCOCCNC2` [Mn(15-pyN3O2)], in data set [1] (first figure of CN/q ref 28), the “CN (coordination number)” value was 7. In data set [1] (second figure of CN/q ref 28), the “q (hydration number)” value was 2.

As for `O.O.[Mn+2].c1cc2nc(c1)CNCCOc1ccccc1OCCNC2` [Mn(15-pyN3O2Ph)], in data set [1] (first figure of CN/q ref 29), the “CN (coordination number)” value was 7. Besides, the “q (hydration number)” value in data set [1] (second figure of CN/q ref 29) is listed as 2.

In the case of `O.O.[Mn+2].c1cc2nc(c1)CNCCNCCNCCNC2` [Mn(15-pyN5)], the “CN (coordination number)” value in data set [1] (first figure of CN/q ref 28) is listed as 7. In data set [1] (second figure of CN/q ref 28), the “q (hydration number)” value is 2.

Turning to `O.O=C([O-])CN1CCOCCOCCNCc2cccc(n2)C1.[Mn+2]` [MnL1], the “CN (coordination number)” value in data set [1] (first figure of CN/q ref 30) was 7. Also, the “q (hydration number)” value in data set [1] (second figure of CN/q ref 30) is 1.

`O.[Mn+2].c1ccc(CN2CCOCCOCCNCc3cccc(n3)C2)nc1` [MnL2]: in data set [2], the “CN (coordination number)” value stood at 7 and the “q (hydration number)” value amounted to 1. Also, in data set [3], the “q estimated by semiempirical method” value is recorded as 0.73.

`O.[Mn+2].c1cc2nc(c1)CN(Cc1nc3ccccc3[nH]1)CCOCCOCCNC2` [MnL3]: in data set [2], the “CN (coordination number)” value amounted to 7 and the “q (hydration number)” value stood at 1. Moreover, the “q estimated by semiempirical method” value in data set [3] was 0.76.

Take `O.O=C([O-])CN1CCNCc2cccc(n2)CNCC1.[Mn+2]` [[Mn(PC1A)(H2O)]^+]: in data set [1] (first figure of CN/q ref 20), the “CN (coordination number)” value is on record as 6. Besides, the “q (hydration number)” value in data set [1] (second figure of CN/q ref 20) is listed as 1.

For the compound `O.O=P([O-])([O-])CN1CCNCc2cccc(n2)CNCC1.[Mn+2]` [[Mn(PC1P)(H2O)]], the “CN (coordination number)” value in data set [1] (first figure of CN/q ref 20) was 6. Also, the “q (hydration number)” value in data set [1] (second figure of CN/q ref 20) is 1.

`O.O=C([O-])CN1CCN(Cc2ccc(-c3ccccc3)cc2)CCN(CC(=O)[O-])Cc2cccc(n2)C1.[Mn+2]` [[Mn(PC2A-BP)(H2O)]]: the “CN (coordination number)” value in data set [1] (first figure of CN/q ref 29) is on record as 7. In addition, the “q (hydration number)” value in data set [1] (second figure of CN/q ref 29) is recorded as 1.

Take `NCCN1CCN(CC(=O)[O-])Cc2cccc(n2)CN(CC(=O)[O-])CC1.O.[Mn+2]` [[Mn(PC2A-EA)(H2O)]]: in data set [1] (first pair 7/0 ref 22), the “CN (coordination number)” value was 7 and the “q (hydration number)” value is 0. Besides, in data set [1] (setting [4]), the “CN (coordination number)” value is recorded as 7 and the “q (hydration number)” value was 1.
